According to publication PMC9957728:
These are yes or no findings as the source states them, for the method shown. Binding seen in cells or lysates may run through a third protein. Some entries that bind do so weakly or less than the wild type. For some assays here: Sequences can lack the tags named with a protein. Blank lines part the entries; values can stand above or below the molecule they belong to.

Tests used:
[1] = molecular target: T1, Flag-tagged wild-type UBE2J1 (UniProt Q9Y385); experiment: co-IP; HEK293T cells transfected with the indicated plasmids for 24 h; for UBE2J1 and RPS3 treated with MG132 (10 μM) for 8 h; western blotting
T1 sequence: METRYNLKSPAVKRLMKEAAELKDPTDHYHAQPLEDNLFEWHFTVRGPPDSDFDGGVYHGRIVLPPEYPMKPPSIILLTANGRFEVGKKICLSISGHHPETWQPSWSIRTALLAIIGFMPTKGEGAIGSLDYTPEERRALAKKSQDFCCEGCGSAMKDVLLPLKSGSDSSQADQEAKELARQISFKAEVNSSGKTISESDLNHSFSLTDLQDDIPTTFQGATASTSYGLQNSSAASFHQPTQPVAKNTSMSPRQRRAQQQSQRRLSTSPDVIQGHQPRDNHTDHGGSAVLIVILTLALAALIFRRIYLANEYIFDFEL

[2] = molecular target: T2, Ubiquitin-conjugating enzyme E2 J1 (UBE2J1), endogenous (human (endogenous in DLD-1 and LoVo)) (UniProt Q9Y385); experiment: co-IP; endogenous proteins in DLD-1 and LoVo lysates; primary antibody at 4 °C overnight, protein A/G magnetic beads, western blotting; for UBE2J1 and RPS3 cells treated with MG132 (10 μM) for 8 h
T2 sequence: T1 sequence

[3] = molecular target: TRIM25 expressed from an overexpression plasmid (UniProt Q14258); experiment: co-IP; HEK293T cells transfected with the indicated plasmids for 24 h; for UBE2J1 and RPS3 treated with MG132 (10 μM) for 8 h; western blotting
[4] = molecular target: TRIM25 expressed from an overexpression plasmid (UniProt Q14258); experiment: co-IP; co-immunoprecipitation with deletion mutants of TRIM25, RPS3 and UBE2J1 to map domains (Fig. S3G-J); cells and tags not told in the text shown
[5] = molecular target: TRIM25 (RING-type E3 ubiquitin ligase), endogenous (human (endogenous in DLD-1 and LoVo)) (UniProt Q14258); experiment: co-IP; endogenous proteins in DLD-1 and LoVo lysates; primary antibody at 4 °C overnight, protein A/G magnetic beads, western blotting; for UBE2J1 and RPS3 cells treated with MG132 (10 μM) for 8 h

Molecule: TRIM25 expressed from an overexpression plasmid (from UniProt Q14258 1-630) (enzyme)
binding [1]: binds

Molecule: TRIM25 (RING-type E3 ubiquitin ligase), endogenous (from UniProt Q14258 1-630) (enzyme)
binding [2]: binds

Other lines, results leading:

binding [3]: binds
binding [4]: binds
B1: Flag-tagged wild-type UBE2J1 (enzyme, UniProt Q9Y385 1-318)
chain: T1 sequence

binding [5]: binds
B2: Ubiquitin-conjugating enzyme E2 J1 (UBE2J1), endogenous (enzyme, UniProt Q9Y385 1-318)
chain: T1 sequence
